PubChem BioAssay AID1224826 | NIAID | 2016
In all, the deposit lists about 17,000 reagents; below is an unselected part. About 1,110 of them (6.6%) count as active. 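Active means lowered or raised reporter signal; replicate intensities are raw and not normalised per plate.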 Further read-outs or replicates are left out here.

- Purpose: 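Regulators of Tlr4 signalling leading to Tnf-alpha expression in macrophages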 (primary screen)
- Cells: RAW264.7 G9 macrophages from mouse bearing reporters for p65 (GFP) and the Tnf promoter (mCherry)
- Reagent: siRNA pool against mouse genes, 100 nM
- Timing: 16 h of LPS stimulation, after 2 days of siRNA transfection
- Challenge: bacterial lipopolysaccharide (Salmonella minnesota R595), 10 ng/ml
- Detection: 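Nuclear mCherry signal of the Tnf promoter reporter measured by imaging after background removal, scaled to each plate median and turned into robust z-scores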
- Direction: Tnf reporter robust z-score: higher = stronger Tnf promoter reporter signal after LPS
- Hit rule: 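Called active when robust z-score is at most -1.3, matching the median of the Tlr4 knock-down control, or over 3; control wells and wells with under 50 cells never active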
- Meaning of the calls: active = Tnf reporter clearly lowered or raised; inactive = no clear change in Tnf reporter

{"gene": "Atp5f1a (GeneID 11946)", "Tnf reporter robust z-score": -0.41, "fewer than 50 cells in well": "enough cells in well", "call": "inactive"}
{"gene": "1700010H22Rik (GeneID 75500)", "fewer than 50 cells in well": "fewer than 50 cells per well; well left out of calls", "call": "inactive"}
{"gene": "Mtdh (GeneID 67154)", "Tnf reporter robust z-score": 4.73, "fewer than 50 cells in well": "enough cells in well", "call": "active"}
{"gene": "Crocc (GeneID 230872)", "Tnf reporter robust z-score": -1.23, "fewer than 50 cells in well": "enough cells in well", "call": "inactive"}
{"gene": "4930590J08Rik (GeneID 381798)", "fewer than 50 cells in well": "fewer than 50 cells per well; well left out of calls", "call": "inactive"}
{"gene": "Abcg2 (GeneID 26357)", "Tnf reporter robust z-score": -1.05, "fewer than 50 cells in well": "enough cells in well", "call": "inactive"}
{"gene": "Pnrc1 (GeneID 108767)", "Tnf reporter robust z-score": 0.65, "fewer than 50 cells in well": "enough cells in well", "call": "inactive"}
{"gene": "B3galnt2 (GeneID 97884)", "Tnf reporter robust z-score": 0.55, "fewer than 50 cells in well": "enough cells in well", "call": "inactive"}

2 consecutive records from above, quoted:
{"gene": "1700010H22Rik (GeneID 75500)", "fewer than 50 cells in well": "fewer than 50 cells per well; well left out of calls", "call": "inactive"}
{"gene": "Mtdh (GeneID 67154)", "Tnf reporter robust z-score": 4.73, "fewer than 50 cells in well": "enough cells in well", "call": "active"}

Additional entries follow:
{"gene": "Gpank1 (GeneID 81845)", "Tnf reporter robust z-score": 0.69, "fewer than 50 cells in well": "enough cells in well", "call": "inactive"}
{"gene": "Or2y1f (GeneID 258462)", "Tnf reporter robust z-score": -1.04, "fewer than 50 cells in well": "enough cells in well", "call": "inactive"}
{"gene": "Slc26a4 (GeneID 23985)", "Tnf reporter robust z-score": 0.03, "fewer than 50 cells in well": "enough cells in well", "call": "inactive"}
{"gene": "Ferd3l (GeneID 114712)", "Tnf reporter robust z-score": -0.46, "fewer than 50 cells in well": "enough cells in well", "call": "inactive"}
